Results deposited as PubChem BioAssay AID686938 (Drosophila RNAi Screening Center, 2013)

Assay: 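Fly genes required for calcium entry once internal stores are emptied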 (primary screen)
System: Drosophila S2R+ cells
Knock-down reagent: long dsRNA against Drosophila genes, about 0.25 µg dsRNA per well, roughly 10,000 cells
Timing: 5 days of knock-down before the calcium assay
Challenge: thapsigargin (SERCA pump blocker) to empty calcium stores; entry signal taken 4 min after adding it
Measured: 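Per-well fluo-4 fluorescence in two replicates, unnormalised, measured in resting cells and 4 min after store depletion by the SERCA blocker thapsigargin; ratio of the two present in few wells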
Reading the numbers: calcium entry signal: higher = stronger calcium signal after store depletion; resting calcium signal: higher = higher resting calcium signal
Hit rule: 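Called when the plate z-score of the entry-to-rest ratio, mean of duplicates, falls below −3; wells with low overall dye signal (Fmax z below −2) or more than five off-targets excluded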
Meaning of the calls: active = strongly reduced calcium entry; inactive = no strong reduction
The deposit covers about 23,000 reagents; this is an unselected part of those that have a named target and a result. Of all reagents, 75 (0.33%) are marked active. 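Raw plate signals without normalisation; calls rest on plate z-scores that were not deposited; ratio present for only 364 wells.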 The record does not give: the dose of the treatment.

target gene	amplicon	calcium entry signal, replicate 1 (fluorescence units)	calcium entry signal, replicate 2 (fluorescence units)	resting calcium signal, replicate 1 (fluorescence units)	resting calcium signal, replicate 2 (fluorescence units)	Call
Pex11ab	DRSC07145	3.97e7	5.51e7	1.67e7	2.46e7	inactive
ko	DRSC11893	3.43e7	5.00e7	1.67e7	2.26e7	inactive
Cyp304a1	DRSC16623	1.95e7	3.96e7	1.05e7	5.68e7	inactive
Cht4	DRSC04603	3.41e7	5.31e7	1.77e7	2.19e7	inactive
Gr58c	DRSC04136	4.62e7	5.15e7	2.12e7	2.40e7	inactive
beg	DRSC10923	2.93e7	3.89e7	1.45e7	2.52e7	inactive
CG14022	DRSC02352	3.78e7	4.01e7	1.82e7	1.76e7	inactive
CG11560	DRSC09843	4.83e7	4.00e7	3.40e7	1.77e7	inactive
CG3556	DRSC18309	3.87e7	4.14e7	1.93e7	1.98e7	inactive
CG4678	DRSC19911	3.59e7	2.96e7	1.86e7	1.33e7	inactive
CG4678	DRSC19912	3.88e7	3.01e7	1.95e7	1.46e7	inactive
CG9737	DRSC16550	3.16e7	4.98e7	1.71e7	2.04e7	inactive
Gen	DRSC09679	5.19e7	4.89e7	3.03e7	2.05e7	inactive
Chs2	DRSC11830	2.90e7	5.47e7	1.41e7	2.47e7	inactive
Hpr1	DRSC12296	3.61e7	4.36e7	1.33e7	1.89e7	inactive
CR14117	DRSC10121	2.30e7	3.62e7	1.22e7	1.49e7	inactive
qm	DRSC11386	2.54e7	8.07e7	1.20e7	2.67e7	inactive
Cyfip	DRSC15679	3.83e7	4.34e7	1.60e7	1.90e7	inactive
Ptp99A	DRSC13933	3.36e7	4.52e7	1.60e7	2.12e7	inactive
Ptp99A	DRSC13939	4.25e7	3.21e7	1.87e7	1.73e7	inactive
Ptp99A	DRSC14319	2.90e7	4.40e7	1.49e7	1.87e7	inactive
Ptp99A	DRSC14320	3.24e7	4.09e7	1.70e7	1.83e7	inactive
Ptp99A	DRSC16803	2.83e7	3.89e7	1.55e7	1.72e7	inactive
Ptp99A	DRSC22125	1.95e7	4.21e7	1.08e7	2.02e7	inactive
Ptp99A	DRSC22477	4.00e7	3.45e7	2.29e7	1.62e7	inactive
Ptp99A	DRSC23033	4.03e7	3.38e7	2.05e7	1.68e7	inactive
Dyb	DRSC07208	4.08e7	4.86e7	1.80e7	2.28e7	inactive
Dyb	DRSC22862	1.95e7	3.46e7	1.08e7	1.54e7	inactive
Oseg5	DRSC03209	5.78e7	5.53e7	3.01e7	2.42e7	inactive
CG42258	DRSC19741	4.50e7	3.11e7	2.10e7	1.41e7	inactive
CG42258	DRSC19783	4.92e7	4.54e7	2.22e7	2.26e7	inactive
CG42258	DRSC23161	5.29e7	3.09e7	2.43e7	1.21e7	inactive
CG8738	DRSC07256	4.35e7	4.05e7	2.14e7	1.84e7	inactive
CG1136	DRSC08184	4.36e7	3.56e7	2.79e7	1.48e7	inactive
Fmo-1	DRSC04328	3.43e7		1.62e7		inactive
NimA	DRSC01353	1.84e7	2.65e7	9.98e6	1.23e7	inactive
NimA	DRSC22170	3.21e7	3.77e7	1.58e7	2.06e7	inactive
CG11251	DRSC09825	2.50e7	3.74e7	1.26e7	1.42e7	inactive
CG14442	DRSC17935	3.67e7	4.46e7	1.89e7	1.99e7	inactive
Cyp12a5	DRSC16621	3.29e7	4.37e7	4.72e7	2.02e7	inactive

Sorted by “calcium entry signal, replicate 1 (fluorescence units)” (low to high): some entries from above.
target gene	amplicon	calcium entry signal, replicate 1 (fluorescence units)	calcium entry signal, replicate 2 (fluorescence units)	resting calcium signal, replicate 1 (fluorescence units)	resting calcium signal, replicate 2 (fluorescence units)	Call
CR14117	DRSC10121	2.30e7	3.62e7	1.22e7	1.49e7	inactive
qm	DRSC11386	2.54e7	8.07e7	1.20e7	2.67e7	inactive
Ptp99A	DRSC13933	3.36e7	4.52e7	1.60e7	2.12e7	inactive
Hpr1	DRSC12296	3.61e7	4.36e7	1.33e7	1.89e7	inactive
Cyfip	DRSC15679	3.83e7	4.34e7	1.60e7	1.90e7	inactive
